Measured values: publication doi:10.1101/2025.09.08.674995
No constants are given. Whether binding was seen depends on the method and setting. Binding seen in cells or lysates may run through a third protein. Binding calls can cover weak binding; strength is not graded here. Sequences can lack the tags named with a protein.

Target: Xenopus tropicalis PP2A-Cα (PPP2CA), His6-tagged (X. tropicalis) (UniProt Q6P365)
Test: tandem affinity co-purification

B1: Xenopus tropicalis PP2A-B55ο (PPP2R2D), Twin-strep-tagged (protein, UniProt Q6DIY3 1-447)
chain: MAGVGGGNDFQWCFSQVKGAIDEDVAEADIISTVEFNCSGDLLATGDKGGRVVIFQREQENKSRPHSRGEYNVYSTFQSHEPEFDYLKSLEIEEKINKIRWLPQQNAAHFLLSTNDKTIKLWKISERDKRVEGYNLKDDDGRLRDPFRITSLRVPILKPMDLMVEASPRRIFANAHTYHINSISVNSDHETYLSADDLRINLWHLEITDRSFNIVDIKPANMEELTEVITAAEFHPHHCNVFVYSSSKGTIRLCDMRDSALCDRHSKFFEEPEDPSSRSFFSEIISSISDVKFSNSGRYMMTRDYLSVKVWDLNMESRPVETYQVHEYLRSKLCSLYENDCIFDKFECCWNGSDSAIMTGSYNNFFRMFDRNTRRDITLEASRESSKPRAILKPRKVCTGGKRKKDEINVDSLDFNKKILHTAWHPTDNIIAVAATNNLYIFQDKVN
With B1 the binding was “binds”.
